Patent US20050191245A1, “Nasal administration of calcium channel, blockers for treatment of hypertension and other cardiovascular disorders” (priority 2004, published 2005)

Tested on: male Sprague-Dawley rats
Conditions: rat, in vivo

total distance traveled, drug treated groups compared to vehicle treated group: no significant difference
Structure (SMILES): COC(=O)C1=C(C)NC(C)=C(C(=O)OC)C1c1ccccc1[N+](=O)[O-] [nifedipine]
